Experimental data published in the supplement of paper PMC7024190.
The list shows a part of the results. Repeats in this data set agree poorly, so a single value says little.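 Human embryonic kidney cells were transiently transfected with a plasmid bearing a Renilla luciferase gene under the HSV-TK promoter. This first-round screen tests roughly ten thousand compounds for ones that increase reporter output.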

Test system: HEK 293FT
Experiment: log relative Renilla luciferase luminescence (reporter expression vs reference, reference not stated) (log (base not stated)); higher = higher recombinant reporter expression
Conditions: 10 µM; time after transfection 48 h
Procedure: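 HEK 293FT cells transiently transfected with pRL-TK (Renilla luciferase) were treated with compounds at 10 uM and luminescence was read about 42 h later. Values are log relative Renilla luminescence (log base and reference not stated). Single-pass screen; ICCB Known Bioactives library.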

Structure (SMILES) | log
CCCCCC(=O)/C=C/C=C\C/C=C\C/C=C\CCCC(=O)O [15-Ketoeicosatetraenoic acid] | 0.0498
O=C(NCC1CCCCN1)c1cc(OCC(F)(F)F)ccc1OCC(F)(F)F (stereo not given) [Flecainide] | -0.0297
CCCCCCCCCCCCC/C=C/[C@@H](O)[C@H](CO)NCCCCCCCC [C8 Ceramine] | 0.0437
NC(=O)c1cccc(N)c1 [Aminobenzamide (3-ABA) [3-Aminobenzamide (3-ABA)]] | -0.0179
CCCCCC(O)c1cccc(OCc2ccc3ccccc3n2)c1 (stereo not given) | 0.1
CCCCc1oc2ccccc2c1C(=O)c1cc(I)c(OCCN(CC)CC)c(I)c1 [Amiodarone] | -0.165
CCCCCCCCCCCCCCC[C@@H](O)[C@H](CO)NC(=O)CCCCCCC [C8 Dihydroceramide] | 0.24
CCCCCCOC(=O)[C@]1(O)C[C@@H]2O[C@@]1(C)n1c3ccccc3c3c4c(c5c6ccccc6n2c5c31)C(=O)NC4 | -0.128
CC1=C(/C=C/C(C)=C\C=C\C(C)=C\C(=O)O)C(C)(C)CCC1 [9-cis Retinoic acid] | 0.201
CN1CCN(C2=Nc3cc(Cl)ccc3Nc3ccccc32)CC1 [Clozapine] | -0.152
N/C(=N\C(=O)c1nc(Cl)c(N)nc1N)NCc1ccccc1 [Benzamil] | -0.0456
NC(N)=NCCNS(=O)(=O)c1cccc2cnccc12 | 0.183
CN(Cc1cnc2nc(N)nc(N)c2n1)c1ccc(C(=O)N[C@@H](CCC(=O)O)C(=O)O)cc1 [Methotrexate] | -0.604
CCCCCC#CCC#CCC#CCC#CCCCC(=O)O [5,8,11,14-Eicosatetraynoic acid] | 0.219
CO[C@H]1C[C@@H]2CC[C@@H](C)[C@@](O)(O2)C(=O)C(=O)N2CCCC[C@H]2C(=O)O[C@H]([C@H](C)C[C@@H]2CC[C@@H](O)[C@H](OC)C2)CC(=O)[C@H](C)/C=C(\C)[C@@H](O)[C@@H](OC)C(=O)[C@H](C)C[C@H](C)/C=C/C=C/C=C/1C [Rapamycin] | -0.597
c1ccc2c(Cc3c[nH]c4ccccc34)c[nH]c2c1 [Diindolylmethane] | -0.195
CN1CCN(CCCN2c3ccccc3Sc3ccc(C(F)(F)F)cc32)CC1 [Trifluoperazine] | -0.0865
CCCCCCCCCCCCCCC[C@@H](O)[C@@H](N)CO [Dihydrosphingosine] | -0.0844
COc1cc2nc(N3CCN(C(=O)c4ccco4)CC3)nc(N)c2cc1OC [Prazocin] | -0.0475
Nc1ncnc2c1nc(Br)n2C1O[C@H]2COP(=O)(O)O[C@@H]2[C@@H]1O (stereo not given in full) [Bromo-cAMP [8-Bromo-cAMP]] | -0.151

Rewritten as labelled records: entries from further up.
NC(N)=NCCNS(=O)(=O)c1cccc2cnccc12
  log: 0.183
CN(Cc1cnc2nc(N)nc(N)c2n1)c1ccc(C(=O)N[C@@H](CCC(=O)O)C(=O)O)cc1 [Methotrexate]
  log: -0.604
CCCCCC#CCC#CCC#CCC#CCCCC(=O)O [5,8,11,14-Eicosatetraynoic acid]
  log: 0.219

(list continues)

Structure (SMILES) | log
Cc1coc2c1C(=O)C(=O)c1c-2ccc2c1CCCC2(C)C [Tanshinone IIA] | -0.064
CCCCCCCCCCC/C=C\C/C=C\CCCC(=O)O [Eicosa-5,8-dienoic acid (20:2 n-12)] | 0.0744
CNC(=O)[C@H](Cc1c[nH]c2ccccc12)NC(=O)[C@@H](CC(=O)NO)CC(C)C | 0.239
CCCCCCCCCCCCCCCCOCC(CO)OC(C)=O (stereo not given) [1-Hexadecyl-2-O-acetyl-glycerol] | -0.11
CCCCCCCC/C=C\CCCCCCCC(=O)OC[C@@H](O)COP(=O)(O)O [Lysophosphatidic acid] | -0.307
O=C1CCc2c(ccc3ccccc23)O1 [Splitomycin] | 0.0475
COc1ccc(C[C@H](N)C(=O)N[C@H]2[C@@H](O)[C@H](n3cnc4c(N(C)C)ncnc43)O[C@@H]2CO)cc1 [Puromycin] | -1.53
O=c1[nH]c2cc(C(F)(F)F)ccc2n1-c1cc(C(F)(F)F)ccc1O | -0.0206
CCCCC/C=C\C/C=C\C/C=C\CCCCC(=O)O [g-Linolenic acid (18:3 n-6)] | -0.229
O=c1[nH]c2ccccc2c2ccccc12 [Phenanthridinone [6(5H)-Phenanthridinone]] | -0.124
CC/C=C\C/C=C\C/C=C\CCCCCCCCCCCC(=O)O [Docosatrienoic acid (22:3 n-3)] | -0.399
CC(C)c1cccc(=O)c(O)c1 [Hinokitiol] | 0.243
COC(C)(C)CCCC(C)C/C=C/C(C)=C/C(=O)O (stereo not given) [Methoprene acid] | -0.0792
O=C1CCC(N2C(=O)c3ccccc3C2=O)C(=O)N1 (stereo not given) [Thalidomide] | -0.00904
CC(=O)OCOC(=O)CN(CC(=O)OCOC(C)=O)c1ccccc1OCCOc1ccccc1N(CC(=O)OCOC(C)=O)CC(=O)OCOC(C)=O | -0.146
CCCCCC(O)CC=C1C(=O)C=CC1CC=CCCCC(=O)O (stereo not given) [Delta 12-Prostaglandin J2] | 0.137
CCC(C)[C@H](NS(=O)(=O)c1cccc2ccccc12)C(=O)N[C@H](C=O)Cc1c[nH]c2ccccc12 (stereo not given in full) | 0.312
CCCCC/C=C\C/C=C\C/C=C\C/C=C\CCCC(=O)O[C@@H](CO)COC(=O)CCCCCCCCCCCCCCCCC [1-Stearoyl-2-arachidonoyl-glycerol] | 0.142
CCCCCCCCCCCCCC(=O)N[C@H](C)[C@@H](O)c1ccccc1 [MAPP, D-erythro] | -0.185
CC1=C(/C=C/C(C)=C/C=C/C(C)=C\C(=O)O)C(C)(C)CCC1 [13-cis Retinoic acid] | 0.0559
